{
  "source": "patent US11235066B2",
  "about": "(THE REGENTS OF THE UNIVERSITY OF MICHIGAN, priority 2015, dated 2022)",
  "assay": "general procedure: Fmoc solid-phase peptide synthesis; Rink amide MBHA resin; HBTU, HOBt",
  "conditions": "whole synthesis, analytical HPLC, scale ~0.06 mmol",
  "data": [
    {"substance": "LTTHYKL-GGGSK", "values": [
      {"measurement": "final HPLC purity", "result": ">95", "unit": "%"}
    ]}
  ]
}
